This note sets out measurements from publication PMC7862700.

Amino acid sequences for entries named in this document (tags omitted). A change or cut given only in a name is not applied to a line headed by its entry.
UniProt P32519: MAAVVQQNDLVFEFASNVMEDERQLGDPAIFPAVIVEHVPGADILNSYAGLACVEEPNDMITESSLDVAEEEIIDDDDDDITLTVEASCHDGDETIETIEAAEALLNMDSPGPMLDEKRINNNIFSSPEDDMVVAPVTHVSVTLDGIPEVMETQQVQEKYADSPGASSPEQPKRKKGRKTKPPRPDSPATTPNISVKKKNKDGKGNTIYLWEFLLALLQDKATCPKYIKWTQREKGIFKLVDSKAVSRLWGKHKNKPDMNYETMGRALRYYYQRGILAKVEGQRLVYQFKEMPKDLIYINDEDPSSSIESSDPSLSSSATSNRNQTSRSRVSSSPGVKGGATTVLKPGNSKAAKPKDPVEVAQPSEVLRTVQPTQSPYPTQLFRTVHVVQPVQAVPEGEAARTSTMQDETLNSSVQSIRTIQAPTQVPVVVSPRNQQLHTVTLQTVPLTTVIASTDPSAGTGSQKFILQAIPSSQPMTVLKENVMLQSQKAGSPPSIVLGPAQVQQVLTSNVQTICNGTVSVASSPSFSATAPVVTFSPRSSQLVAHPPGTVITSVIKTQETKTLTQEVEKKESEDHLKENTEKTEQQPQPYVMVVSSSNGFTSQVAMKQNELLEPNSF
UniProt P50549: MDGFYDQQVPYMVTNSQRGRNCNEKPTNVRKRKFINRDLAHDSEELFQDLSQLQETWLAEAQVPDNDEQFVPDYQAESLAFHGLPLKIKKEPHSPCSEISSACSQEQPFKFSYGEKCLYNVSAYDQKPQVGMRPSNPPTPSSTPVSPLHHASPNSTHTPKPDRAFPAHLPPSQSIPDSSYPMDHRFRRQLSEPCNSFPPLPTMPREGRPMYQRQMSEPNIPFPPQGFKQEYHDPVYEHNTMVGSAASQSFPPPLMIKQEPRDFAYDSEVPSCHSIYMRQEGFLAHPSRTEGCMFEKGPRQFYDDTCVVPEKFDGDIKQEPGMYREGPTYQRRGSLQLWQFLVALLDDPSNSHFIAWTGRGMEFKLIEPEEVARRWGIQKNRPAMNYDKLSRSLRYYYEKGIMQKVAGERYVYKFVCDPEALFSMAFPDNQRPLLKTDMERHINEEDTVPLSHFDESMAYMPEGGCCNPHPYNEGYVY

Common to all, as to experiment: DAPPL (digital affinity profiling via proximity ligation, sequencing)
Common to all, as to settings: 10 mM Tris-HCl pH 7.5, 50 mM NaCl, 1 mM DTT, 4% glycerol, room temperature, 30 min; GST-TFs on glutathione beads, 16-mer random dsDNA library, 0.1% …; high values mean tight binding; double strand, one strand shown; scale: fold enrichment (6-mer frequency, TF over GST control)

One test deals with T1, ERG (UniProt P11308).
T1 sequence: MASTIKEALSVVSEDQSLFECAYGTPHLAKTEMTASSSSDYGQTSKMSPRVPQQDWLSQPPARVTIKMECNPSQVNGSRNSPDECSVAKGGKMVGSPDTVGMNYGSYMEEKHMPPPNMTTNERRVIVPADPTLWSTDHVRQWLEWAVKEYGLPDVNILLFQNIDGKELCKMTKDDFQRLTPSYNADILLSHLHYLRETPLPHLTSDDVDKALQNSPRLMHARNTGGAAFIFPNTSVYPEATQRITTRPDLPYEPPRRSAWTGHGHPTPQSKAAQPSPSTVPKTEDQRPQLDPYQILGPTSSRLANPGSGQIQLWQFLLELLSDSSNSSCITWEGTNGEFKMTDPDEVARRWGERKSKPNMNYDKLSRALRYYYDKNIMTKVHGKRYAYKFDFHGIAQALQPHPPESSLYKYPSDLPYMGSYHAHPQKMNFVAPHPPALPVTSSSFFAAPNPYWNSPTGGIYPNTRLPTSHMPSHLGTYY

Another test has as its target T2, ETV4 (UniProt P43268).
T2 sequence: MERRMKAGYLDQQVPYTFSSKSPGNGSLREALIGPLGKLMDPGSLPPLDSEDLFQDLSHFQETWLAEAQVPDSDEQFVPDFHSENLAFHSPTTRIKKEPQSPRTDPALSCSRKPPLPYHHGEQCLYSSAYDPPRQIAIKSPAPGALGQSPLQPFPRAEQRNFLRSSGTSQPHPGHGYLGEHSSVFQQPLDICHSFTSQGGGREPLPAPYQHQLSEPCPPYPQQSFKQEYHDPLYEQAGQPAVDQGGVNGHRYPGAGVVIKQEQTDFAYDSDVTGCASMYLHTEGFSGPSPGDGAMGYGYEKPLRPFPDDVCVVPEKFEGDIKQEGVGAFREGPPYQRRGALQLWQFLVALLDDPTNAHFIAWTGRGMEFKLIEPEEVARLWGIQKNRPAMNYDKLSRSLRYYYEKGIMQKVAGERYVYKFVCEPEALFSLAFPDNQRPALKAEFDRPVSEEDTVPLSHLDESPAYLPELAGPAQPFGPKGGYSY

The next test has as its target T3, ERF (UniProt P50548).
T3 sequence: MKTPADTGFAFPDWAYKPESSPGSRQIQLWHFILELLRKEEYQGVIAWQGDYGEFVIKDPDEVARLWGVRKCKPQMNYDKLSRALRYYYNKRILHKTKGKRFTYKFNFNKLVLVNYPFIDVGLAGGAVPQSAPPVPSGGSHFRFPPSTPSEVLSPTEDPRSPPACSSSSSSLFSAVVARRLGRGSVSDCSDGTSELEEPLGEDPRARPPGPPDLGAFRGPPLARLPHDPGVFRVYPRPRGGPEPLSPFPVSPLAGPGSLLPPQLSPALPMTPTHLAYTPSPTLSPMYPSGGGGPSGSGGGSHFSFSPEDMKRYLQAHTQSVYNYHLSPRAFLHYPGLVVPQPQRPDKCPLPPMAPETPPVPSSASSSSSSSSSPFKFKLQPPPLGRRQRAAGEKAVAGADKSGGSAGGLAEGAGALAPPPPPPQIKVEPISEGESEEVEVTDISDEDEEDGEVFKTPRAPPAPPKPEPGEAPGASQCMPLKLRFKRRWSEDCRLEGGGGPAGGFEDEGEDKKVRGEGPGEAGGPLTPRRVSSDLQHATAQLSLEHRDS

The next test concerns the target ELF1 (UniProt P32519).
A further test deals with ETV1 (UniProt P50549).

The list shows a part of the results, in another mix than the full data. For part of these data: At the low end of the ranking the order means little. This is one part of the list. For part of these data: The source does not settle which construct or isoform was used.

Regarding ACTCTA, the binding signal with ERG was 1.39; in the test with ETV4, 1.4; with ERF, 1.56.
The matching figures for GCTCGT: 1.12, 1.23 and 1.2.
In the case of CAATAA, the binding signal in the test with ERG is 1.13; in the test with ETV4 it was 1.2; in the test with ERF, 1.15.
Take AATAAC: the binding signal with ERG came out at 1.27; with ETV4 it was 1.28; in the test with ERF it was 1.33.
The like results for TCGATC were, in that order, 1.18, 1.21 and 1.12.
The matching figures for ATCAGC: 0.995, 1.06 and 0.913.
Turning to TCGACA, the binding signal was determined as 1.35 with ERG, 1.3 with ETV4 and 1.35 in the test with ERF.
For the sequence GTTTCC, the binding signal with ERG is 3.43; with ETV4, 2.83; in the test with ERF, 2.49.
As to ACTAGC, the binding signal is 1.21 with ERG, 1.16 in the test with ETV4 and 1.19 with ERF.
With ATCCGA, the figures for the binding signal with ERG, in the test with ETV4 and in the test with ERF were 1.31, 1.24 and 1.22, respectively.
The like results for TTGCCG were, in that order, 1.04, 1.19 and 0.898.
The like results for CCGATT were, in that order, 1.34, 1.41 and 1.28.
Take CGCTCT: the binding signal in the test with ERG came to 1.21; with ELF1, 1.3; with ETV4, 1.28; with ERF, 1.3.
As for TGTGAC, the results for the binding signal in the test with ERG, in the test with ETV4 and with ERF were 1.08, 1.1 and 0.983, respectively.
The matching figures for CCCACG: 1.09, 1.21 and 1.13.
Turning to ACTTCA, the binding signal was 1.4 with ERG, 1.42 with ELF1, 1.36 in the test with ETV4 and 1.33 with ERF.
Consider TTCCAG, for which the binding signal amounted to 1 in the test with ERG, 1.02 in the test with ELF1 and 1.12 with ETV4.
The like results for TTGTAC were, in that order, 1.33, 1.41 and 1.54.
Consider CTCTAG, for which the binding signal with ERG was found to be 1.25; in the test with ELF1 it was 1.38; with ETV4, 1.37.
On to CTATAT, for which the binding signal in the test with ERG came out at 1.34; with ELF1, 1.5; with ETV4, 1.38.
For the sequence TTTATT, the binding signal with ERG was determined as 1.26; with ELF1 it was 1.19; with ETV4, 1.22.
Regarding CCAATG, the binding signal was 1.15 with ETV4 and 1.06 in the test with ETV1.
The like results for AGATTC were, in that order, 1.19 and 1.22.
The matching figures for AGCTTT: 1.08 and 1.1.
CACTTC: the binding signal in the test with ERG was 4.19; with ELF1, 3.41; with ETV4 it was 4.07.
The like results for ATTTTT were, in that order, 1.1, 1.14 and 1.06.
Consider GATATC, for which the binding signal came out at 1.9 in the test with ERG, 1.46 in the test with ELF1, 1.72 with ETV4 and 1.56 with ERF.
With TTTCTC, the binding signal with ERG amounted to 1.54; with ELF1, 1.62; with ETV4 it was 1.65.
As to AAATGA, the binding signal in the test with ETV4 was found to be 1.26; in the test with ETV1, 1.29.
Take TCACAG: the binding signal with ERG stood at 0.971; with ELF1, 1.06; with ETV4, 1.04.
Regarding CAGGAT, the figures for the binding signal in the test with ERG, in the test with ELF1 and with ETV4 were 1.2, 1.14 and 1.22, respectively.
The matching figures for AAAAAG: 1.19, 1.13 and 1.22.
Turning to CGACCC, the binding signal with ERG is 1.22; with ELF1 it was 1.26; with ETV4 it was 1.32; with ERF, 1.36.
Take ATATGT: the figures for the binding signal in the test with ETV4 and with ETV1 were 1.18 and 1.12, respectively.
In the case of AAGCAC, the binding signal with ERG worked out at 1.19; with ELF1 it was 1.18; with ETV4 it was 1.24.
For the sequence AGGAAA, the binding signal was 1.62 with ERG, 1.27 with ELF1, 1.3 in the test with ETV4 and 1.34 in the test with ERF.
Turning to GTTTCG, the binding signal was found to be 1.25 with ERG, 1.27 in the test with ELF1 and 1.31 with ETV4.
The like results for TGTTAA were, in that order, 1.11, 1.09 and 1.1.
GAAATC: the binding signal with ERG was found to be 1.65; in the test with ELF1, 1.36; with ETV4 it was 1.4; in the test with ERF, 1.31.
As to ATCCTG, the figures for the binding signal in the test with ERG, with ELF1 and in the test with ETV4 were 1.62, 1.36 and 1.4, respectively.
The matching figures for AAAGAA: 1.27, 1.28 and 1.22.
The like results for GACTCT were, in that order, 1.34, 1.37 and 1.38.
The like results for ACTGGC were, in that order, 1.11, 1.18 and 1.17.
On to CTCCTA, for which the binding signal came out at 1.35 with ETV4 and 1.29 in the test with ETV1.
The matching figures for ACACTT: 1.86 and 1.77.
For AAGTCA, the binding signal with ERG stood at 1.26; with ELF1, 1.17; with ETV4, 1.19.
The like results for CCGCCC were, in that order, 1.29, 1.35 and 1.31.
The matching figures for ATAATT: 1.4, 1.27 and 1.22.
The matching figures for TGCCCG: 1.19, 1.2 and 1.11.
On to TCCGAC, for which the binding signal was 1.46 with ERG, 1.42 in the test with ELF1 and 1.46 in the test with ETV4.
As to ATGCAA, the binding signal with ERG stood at 1.29; in the test with ELF1, 1.25; with ETV4, 1.24; with ERF, 1.23.
Regarding TTTCAG, the binding signal in the test with ERG was 1.3; in the test with ELF1, 1.31; in the test with ETV4, 1.28.
As for CGATAT, the binding signal with ETV4 turned out to be 1.19; with ETV1 it was 0.979.
For the sequence GTGGCT, the binding signal with ERG is 1.19; with ELF1, 1.11; with ETV4, 1.18.
Regarding GCTCCA, the binding signal with ETV4 turned out to be 1.17; with ETV1 it was 1.12.
The matching figures for CATTTC: 1.8 and 1.84.
The matching figures for TTAATT: 1.37 and 1.34.
As for AGCTTC, the binding signal is 1.75 with ETV4 and 1.62 with ETV1.
The like results for ATATGA were, in that order, 1.13 and 1.05.
The like results for CGATCC were, in that order, 1.15 and 1.25.
The like results for CAGCTT were, in that order, 1.21 and 1.16.
As for GCTCAA, the binding signal with ETV4 stood at 1.09; with ETV1 it was 1.1.
The like results for TTACTG were, in that order, 1.07 and 1.01.
The matching figures for GACATC: 1.41 and 1.33.
The like results for ACCATA were, in that order, 1.13 and 1.09.
